Measurements published in paper PMC7113306.

Target: T1, BMP10 GF-domain from pro-BMP10 (human) (UniProt O95393)
T1 sequence: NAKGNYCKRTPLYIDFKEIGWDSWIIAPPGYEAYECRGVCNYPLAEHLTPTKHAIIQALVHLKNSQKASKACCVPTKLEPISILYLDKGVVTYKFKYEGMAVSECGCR
Experiment: SEC; analytical gel filtration, Superdex 200 10/300, 20 mM Tris.HCl, 150 mM NaCl, pH 7.4; 100 μg protein with 2-fold molar excess of ALK1 ECD; peaks checked by SDS-PAGE and anti-prodomain blot; both purified

Substance: BMP10 prodomain (human) (domain or fragment)
- binding: binds

Results are given in words; binding and its absence hold for the method and conditions named. A result given as binding can be weak or reduced; the word gives no strength.
